These results are taken from article PMC5864832.

Sequences of proteins named here, by UniProt entry; tags and fusion partners are left off. Residues count along the entry.
UniProt P02545, residues 1-646: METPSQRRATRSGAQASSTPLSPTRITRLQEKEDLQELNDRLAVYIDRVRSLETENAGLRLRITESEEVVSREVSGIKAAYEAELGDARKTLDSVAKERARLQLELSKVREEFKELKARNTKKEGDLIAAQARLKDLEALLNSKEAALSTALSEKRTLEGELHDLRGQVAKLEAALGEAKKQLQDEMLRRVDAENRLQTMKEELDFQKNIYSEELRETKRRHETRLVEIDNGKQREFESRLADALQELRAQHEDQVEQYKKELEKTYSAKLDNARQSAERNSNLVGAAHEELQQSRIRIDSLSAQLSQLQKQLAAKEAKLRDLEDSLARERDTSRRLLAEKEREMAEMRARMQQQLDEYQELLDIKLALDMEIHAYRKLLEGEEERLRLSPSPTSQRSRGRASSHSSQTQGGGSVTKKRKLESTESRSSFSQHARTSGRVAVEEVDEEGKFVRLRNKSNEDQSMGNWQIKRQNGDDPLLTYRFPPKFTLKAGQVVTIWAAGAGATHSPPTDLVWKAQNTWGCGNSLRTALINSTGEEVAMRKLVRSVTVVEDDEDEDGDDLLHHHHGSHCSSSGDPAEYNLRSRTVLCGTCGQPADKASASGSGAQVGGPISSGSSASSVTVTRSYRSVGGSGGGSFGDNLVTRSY
UniProt Q9UHV7: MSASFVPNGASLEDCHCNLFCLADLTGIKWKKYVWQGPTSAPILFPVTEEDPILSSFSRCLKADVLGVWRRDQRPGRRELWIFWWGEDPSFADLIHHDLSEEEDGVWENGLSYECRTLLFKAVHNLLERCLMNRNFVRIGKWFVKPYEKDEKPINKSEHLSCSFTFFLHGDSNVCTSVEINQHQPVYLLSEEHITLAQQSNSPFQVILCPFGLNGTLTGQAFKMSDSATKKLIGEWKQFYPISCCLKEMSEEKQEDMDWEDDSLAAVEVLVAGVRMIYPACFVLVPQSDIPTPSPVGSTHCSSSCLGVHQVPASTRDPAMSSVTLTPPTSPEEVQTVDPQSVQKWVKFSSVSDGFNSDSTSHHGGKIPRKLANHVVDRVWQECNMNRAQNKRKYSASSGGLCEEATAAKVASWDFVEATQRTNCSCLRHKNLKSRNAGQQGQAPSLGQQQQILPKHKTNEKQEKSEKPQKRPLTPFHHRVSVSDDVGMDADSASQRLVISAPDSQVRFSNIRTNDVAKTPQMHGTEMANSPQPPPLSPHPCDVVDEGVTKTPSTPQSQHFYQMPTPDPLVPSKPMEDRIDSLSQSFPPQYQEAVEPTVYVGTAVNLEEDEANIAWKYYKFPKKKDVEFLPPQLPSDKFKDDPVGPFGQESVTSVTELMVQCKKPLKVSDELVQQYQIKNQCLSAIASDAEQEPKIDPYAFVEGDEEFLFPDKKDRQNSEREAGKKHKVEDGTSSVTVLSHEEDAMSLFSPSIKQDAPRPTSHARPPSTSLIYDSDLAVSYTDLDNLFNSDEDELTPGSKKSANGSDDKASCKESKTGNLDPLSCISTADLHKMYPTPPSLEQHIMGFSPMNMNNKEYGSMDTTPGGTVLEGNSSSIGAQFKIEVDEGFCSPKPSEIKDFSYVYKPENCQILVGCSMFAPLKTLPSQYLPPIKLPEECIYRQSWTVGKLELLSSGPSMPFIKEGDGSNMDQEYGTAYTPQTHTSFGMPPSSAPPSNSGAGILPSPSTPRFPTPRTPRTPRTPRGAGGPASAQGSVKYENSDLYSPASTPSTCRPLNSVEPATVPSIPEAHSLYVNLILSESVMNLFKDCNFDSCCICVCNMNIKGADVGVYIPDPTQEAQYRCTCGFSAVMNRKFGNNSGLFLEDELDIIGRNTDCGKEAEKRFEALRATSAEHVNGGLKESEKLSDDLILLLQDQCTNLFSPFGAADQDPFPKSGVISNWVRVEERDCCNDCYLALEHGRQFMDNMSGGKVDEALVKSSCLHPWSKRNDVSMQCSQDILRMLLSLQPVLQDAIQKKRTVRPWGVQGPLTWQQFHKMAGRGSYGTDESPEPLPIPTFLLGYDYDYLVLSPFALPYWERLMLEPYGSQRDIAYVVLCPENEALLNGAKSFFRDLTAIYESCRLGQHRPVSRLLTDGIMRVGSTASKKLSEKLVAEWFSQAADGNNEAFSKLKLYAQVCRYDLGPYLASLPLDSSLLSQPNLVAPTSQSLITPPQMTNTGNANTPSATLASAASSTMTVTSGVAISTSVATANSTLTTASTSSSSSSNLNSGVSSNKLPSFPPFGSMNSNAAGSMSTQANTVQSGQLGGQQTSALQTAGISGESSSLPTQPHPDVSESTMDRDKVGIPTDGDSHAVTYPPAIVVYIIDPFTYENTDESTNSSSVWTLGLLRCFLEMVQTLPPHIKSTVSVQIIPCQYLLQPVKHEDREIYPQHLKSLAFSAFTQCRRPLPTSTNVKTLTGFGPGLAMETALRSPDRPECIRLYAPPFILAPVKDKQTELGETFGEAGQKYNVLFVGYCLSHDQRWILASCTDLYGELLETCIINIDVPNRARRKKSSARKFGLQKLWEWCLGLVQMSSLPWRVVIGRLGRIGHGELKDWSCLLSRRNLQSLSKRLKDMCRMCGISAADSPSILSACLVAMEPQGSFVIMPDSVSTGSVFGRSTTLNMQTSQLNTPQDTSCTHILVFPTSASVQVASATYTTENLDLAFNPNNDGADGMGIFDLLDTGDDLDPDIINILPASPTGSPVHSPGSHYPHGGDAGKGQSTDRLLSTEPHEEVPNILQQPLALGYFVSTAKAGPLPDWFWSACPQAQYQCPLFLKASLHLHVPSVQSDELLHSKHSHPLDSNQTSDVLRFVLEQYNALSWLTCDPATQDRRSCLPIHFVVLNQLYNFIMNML
UniProt P49336: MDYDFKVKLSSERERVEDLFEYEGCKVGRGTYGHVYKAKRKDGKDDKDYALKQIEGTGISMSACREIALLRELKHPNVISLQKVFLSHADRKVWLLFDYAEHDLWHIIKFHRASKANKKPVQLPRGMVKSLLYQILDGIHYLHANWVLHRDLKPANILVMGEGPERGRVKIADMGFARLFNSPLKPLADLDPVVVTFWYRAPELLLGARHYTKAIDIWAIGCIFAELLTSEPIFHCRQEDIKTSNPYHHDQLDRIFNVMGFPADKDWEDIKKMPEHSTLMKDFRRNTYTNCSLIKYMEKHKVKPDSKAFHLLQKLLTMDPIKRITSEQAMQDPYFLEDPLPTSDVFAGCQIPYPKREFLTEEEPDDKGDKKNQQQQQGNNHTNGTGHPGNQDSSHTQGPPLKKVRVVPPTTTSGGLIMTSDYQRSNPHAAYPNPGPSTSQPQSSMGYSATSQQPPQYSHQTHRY
UniProt P12270: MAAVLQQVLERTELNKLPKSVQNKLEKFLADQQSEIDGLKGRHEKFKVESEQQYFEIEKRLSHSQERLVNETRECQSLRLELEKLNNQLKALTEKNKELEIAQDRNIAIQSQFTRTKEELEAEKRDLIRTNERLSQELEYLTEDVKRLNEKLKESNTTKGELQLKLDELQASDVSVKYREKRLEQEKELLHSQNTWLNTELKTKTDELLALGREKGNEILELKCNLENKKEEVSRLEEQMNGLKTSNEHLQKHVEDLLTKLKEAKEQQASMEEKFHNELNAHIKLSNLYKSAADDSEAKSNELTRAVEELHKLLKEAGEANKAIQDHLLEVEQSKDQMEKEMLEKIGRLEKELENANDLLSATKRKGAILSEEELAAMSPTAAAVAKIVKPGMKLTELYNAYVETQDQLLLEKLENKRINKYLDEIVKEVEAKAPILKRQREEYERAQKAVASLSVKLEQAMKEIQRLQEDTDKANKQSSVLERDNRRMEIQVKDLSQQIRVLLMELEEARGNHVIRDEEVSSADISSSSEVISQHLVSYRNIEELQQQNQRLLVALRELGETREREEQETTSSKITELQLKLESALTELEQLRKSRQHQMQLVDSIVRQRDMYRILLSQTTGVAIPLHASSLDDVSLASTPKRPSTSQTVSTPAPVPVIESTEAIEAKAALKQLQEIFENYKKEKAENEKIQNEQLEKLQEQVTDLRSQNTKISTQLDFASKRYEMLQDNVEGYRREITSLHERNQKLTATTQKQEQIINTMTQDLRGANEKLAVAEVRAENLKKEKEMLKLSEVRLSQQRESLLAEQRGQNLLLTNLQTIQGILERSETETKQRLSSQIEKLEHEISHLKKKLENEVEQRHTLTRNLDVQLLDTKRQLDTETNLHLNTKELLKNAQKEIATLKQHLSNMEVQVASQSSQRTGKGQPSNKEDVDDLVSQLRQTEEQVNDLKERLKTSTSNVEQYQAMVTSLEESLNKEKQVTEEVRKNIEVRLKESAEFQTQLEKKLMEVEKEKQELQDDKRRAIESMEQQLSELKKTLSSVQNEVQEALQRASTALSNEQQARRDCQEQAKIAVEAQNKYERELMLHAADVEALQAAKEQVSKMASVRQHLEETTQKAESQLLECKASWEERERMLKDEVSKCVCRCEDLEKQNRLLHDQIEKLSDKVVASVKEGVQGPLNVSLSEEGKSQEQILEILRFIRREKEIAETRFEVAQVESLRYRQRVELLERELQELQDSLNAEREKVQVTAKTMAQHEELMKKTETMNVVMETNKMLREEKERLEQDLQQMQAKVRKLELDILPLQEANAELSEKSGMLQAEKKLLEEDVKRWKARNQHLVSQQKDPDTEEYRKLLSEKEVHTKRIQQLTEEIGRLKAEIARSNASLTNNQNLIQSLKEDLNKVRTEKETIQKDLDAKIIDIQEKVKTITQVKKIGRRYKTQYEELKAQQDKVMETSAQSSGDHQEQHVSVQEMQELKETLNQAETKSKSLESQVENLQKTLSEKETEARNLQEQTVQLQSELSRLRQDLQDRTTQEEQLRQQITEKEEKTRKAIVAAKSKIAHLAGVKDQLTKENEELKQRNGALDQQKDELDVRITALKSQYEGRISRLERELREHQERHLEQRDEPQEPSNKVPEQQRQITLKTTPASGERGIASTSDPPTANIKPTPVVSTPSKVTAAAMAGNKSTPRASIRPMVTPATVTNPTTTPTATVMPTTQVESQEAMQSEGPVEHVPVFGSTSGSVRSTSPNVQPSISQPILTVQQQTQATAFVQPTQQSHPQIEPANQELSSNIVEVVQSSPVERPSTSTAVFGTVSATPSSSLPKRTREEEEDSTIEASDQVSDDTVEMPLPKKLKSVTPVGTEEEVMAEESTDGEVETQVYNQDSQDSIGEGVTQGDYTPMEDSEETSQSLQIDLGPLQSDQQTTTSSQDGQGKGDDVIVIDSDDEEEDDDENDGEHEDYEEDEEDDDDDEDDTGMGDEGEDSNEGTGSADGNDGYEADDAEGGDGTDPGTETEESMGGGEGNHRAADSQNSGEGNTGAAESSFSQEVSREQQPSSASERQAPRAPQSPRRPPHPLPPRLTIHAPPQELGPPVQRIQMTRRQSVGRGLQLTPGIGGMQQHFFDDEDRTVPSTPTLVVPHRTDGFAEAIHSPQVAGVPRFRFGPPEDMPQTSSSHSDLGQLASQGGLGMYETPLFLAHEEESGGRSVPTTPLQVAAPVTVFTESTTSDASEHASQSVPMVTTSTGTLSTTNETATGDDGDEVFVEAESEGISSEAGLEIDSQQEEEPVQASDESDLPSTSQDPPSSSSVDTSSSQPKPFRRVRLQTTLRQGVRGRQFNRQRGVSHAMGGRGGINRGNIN

These are yes or no findings as the source states them, for the method shown. In cells and extracts the contact can be indirect. These calls come from enrichment with a bait or labelling near it, and not all partners need be listed.

The target of assay [1] is Prelamin-A/C (human) (UniProt P02545). As to the kind of experiment: proximity labelling; BioID: MAC-tagged bait in stable Flp-In T-REx 293 cells, tetracycline and 50 uM biotin 24 h; lysis buffer 2 (as buffer 1 with 0.1% SDS), sonication, benzonase; biotinylated proteins on Strep-Tactin beads; LC-MS; SAINT and CRAPome filter.
For assay [2] the target is unchanged. As to the kind of experiment: affinity purification with mass spectrometry; MAC-tagged bait in stable Flp-In T-REx 293 cells, 1 ug/ml tetracycline 24 h, no biotin; lysis buffer 1 (0.5% IGEPAL, 50 mM Hepes pH 8.0, 150 mM NaCl, 50 mM NaF, 5 mM EDTA); single-step Strep-Tactin beads, elution with 0.5 mM biotin; LC-MS; SAINT score >= 0.73 and CRAPome filter against MAC-GFP controls.

In assay [3] the target is mediator of RNA polymerase II transcription subunit 13 (human) (UniProt Q9UHV7). As to the kind of experiment: affinity purification with mass spectrometry + proximity labelling; bait-normalised prey PSM values of AP-MS and of BioID of the same MAC-tagged bait integrated to a relative distance between bait and prey.
For assay [4], the target named is cyclin-dependent kinase (CDK) 8 (human) (UniProt P49336). Described as above.

Consider “lamin-B receptor (from UniProt Q14739 1-615)”, for which the binding result in the assay with Prelamin-A/C (human) [1] and in the assay with Prelamin-A/C (human) [2] was “binds” each time.
On to “importin subunit alpha IMA5 (from UniProt P52294 1-538)”, for which the binding entry with Prelamin-A/C (human) [1] and with Prelamin-A/C (human) [2] was “binds” each time.
For “importin subunit alpha IMA7 (from UniProt O60684 1-536)”, the binding entry in the assay with Prelamin-A/C (human) [1] and with Prelamin-A/C (human) [2] was “binds” in each case.
“nucleoprotein TPR (from UniProt P12270 1-2363)”: the binding entry with Prelamin-A/C (human) [1] and with Prelamin-A/C (human) [2] was “binds” throughout.

B1: MED17 (protein, UniProt Q9NVC6 1-651)
chain: MSGVRAVRISIESACEKQVHEVGLDGTETYLPPLSMSQNLARLAQRIDFSQGSGSEEEEAAGTEGDAQEWPGAGSSADQDDEEGVVKFQPSLWPWDSVRNNLRSALTEMCVLYDVLSIVRDKKFMTLDPVSQDALPPKQNPQTLQLISKKKSLAGAAQILLKGAERLTKSVTENQENKLQRDFNSELLRLRQHWKLRKVGDKILGDLSYRSAGSLFPHHGTFEVIKNTDLDLDKKIPEDYCPLDVQIPSDLEGSAYIKVSIQKQAPDIGDLGTVNLFKRPLPKSKPGSPHWQTKLEAAQNVLLCKEIFAQLSREAVQIKSQVPHIVVKNQIISQPFPSLQLSISLCHSSNDKKSQKFATEKQCPEDHLYVLEHNLHLLIREFHKQTLSSIMMPHPASAPFGHKRMRLSGPQAFDKNEINSLQSSEGLLEKIIKQAKHIFLRSRAAATIDSLASRIEDPQIQAHWSNINDVYESSVKVLITSQGYEQICKSIQLQLNIGVEQIRVVHRDGRVITLSYQEQELQDFLLSQMSQHQVHAVQQLAKVMGWQVLSFSNHVGLGPIESIGNASAITVASPSGDYAISVRNGPESGSKIMVQFPRNQCKDLPKSDVLQDNKWSHLRGPFKEVQWNKMEGRNFVYKMELLMSALSPCLL
For B1, the binding entry in assay [3] and in assay [4] was “binds” each time.

B2: LMNB2 (protein, UniProt Q03252 1-620)
chain: MSPPSPGRRREQRRPRAAATMATPLPGRAGGPATPLSPTRLSRLQEKEELRELNDRLAHYIDRVRALELENDRLLLKISEKEEVTTREVSGIKALYESELADARRVLDETARERARLQIEIGKLRAELDEVNKSAKKREGELTVAQGRVKDLESLFHRSEVELAAALSDKRGLESDVAELRAQLAKAEDGHAVAKKQLEKETLMRVDLENRCQSLQEELDFRKSVFEEEVRETRRRHERRLVEVDSSRQQEYDFKMAQALEELRSQHDEQVRLYKLELEQTYQAKLDSAKLSSDQNDKAASAAREELKEARMRLESLSYQLSGLQKQASAAEDRIRELEEAMAGERDKFRKMLDAKEQEMTEMRDVMQQQLAEYQELLDVKLALDMEINAYRKLLEGEEERLKLSPSPSSRVTVSRATSSSSGSLSATGRLGRSKRKRLEVEEPLGSGPSVLGTGTGGSGGFHLAQQASASGSVSIEEIDLEGKFVQLKNNSDKDQSLGNWRIKRQVLEGEEIAYKFTPKYILRAGQMVTVWAAGAGVAHSPPSTLVWKGQSSWGTGESFRTVLVNADGEEVAMRTVKKSSVMRENENGEEEEEEAEFGEEDLFHQQGDPRTTSRGCYVM
Consider B2, for which the binding result with Prelamin-A/C (human) [1] and with Prelamin-A/C (human) [2] was “binds” in each case.

B3: LAP2B (protein, UniProt P42167 1-454)
chain: MPEFLEDPSVLTKDKLKSELVANNVTLPAGEQRKDVYVQLYLQHLTARNRPPLPAGTNSKGPPDFSSDEEREPTPVLGSGAAAAGRSRAAVGRKATKKTDKPRQEDKDDLDVTELTNEDLLDQLVKYGVNPGPIVGTTRKLYEKKLLKLREQGTESRSSTPLPTISSSAENTRQNGSNDSDRYSDNEEDSKIELKLEKREPLKGRAKTPVTLKQRRVEHNQSYSQAGITETEWTSGSSKGGPLQALTRESTRGSRRTPRKRVETSEHFRIDGPVISESTPIAETIMASSNESLVVNRVTGNFKHASPILPITEFSDIPRRAPKKPLTRAEVGEKTEERRVERDILKEMFPYEASTPTGISASCRRPIKGAAGRPLELSDFRMEESFSSKYVPKYVPLADVKSEKTKKGRSIPVWIKILLFVVVAVFLFLVYQAMETNQVNPFSNFLHVDPRKSN
On to B3, for which the binding entry with Prelamin-A/C (human) [1] and in the assay with Prelamin-A/C (human) [2] was “binds” in each case.

B4: MED23 (protein, UniProt Q9ULK4 1-1368)
chain: METQLQSIFEEVVKTEVIEEAFPGMFMDTPEDEKTKLISCLGAFRQFWGGLSQESHEQCIQWIVKFIHGQHSPKRISFLYDCLAMAVETGLLPPRLVCESLINSDTLEWERTQLWALTFKLVRKIIGGVDYKGVRDLLKVILEKILTIPNTVSSAVVQQLLAAREVIAYILERNACLLPAYFAVTEIRKLYPEGKLPHWLLGNLVSDFVDTFRPTARINSICGRCSLLPVVNNSGAICNSWKLDPATLRFPLKGLLPYDKDLFEPQTALLRYVLEQPYSRDMVCNMLGLNKQHKQRCPVLEDQLVDLVVYAMERSETEEKFDDGGTSQLLWQHLSSQLIFFVLFQFASFPHMVLSLHQKLAGRGLIKGRDHLMWVLLQFISGSIQKNALADFLPVMKLFDLLYPEKEYIPVPDINKPQSTHAFAMTCIWIHLNRKAQNDNSKLQIPIPHSLRLHHEFLQQSLRNKSLQMNDYKIALLCNAYSTNSECFTLPMGALVETIYGNGIMRIPLPGTNCMASGSITPLPMNLLDSLTVHAKMSLIHSIATRVIKLAHAKSSVALAPALVETYSRLLVYMEIESLGIKGFISQLLPTVFKSHAWGILHTLLEMFSYRMHHIQPHYRVQLLSHLHTLAAVAQTNQNQLHLCVESTALRLITALGSSEVQPQFTRFLSDPKTVLSAESEELNRALILTLARATHVTDFFTGSDSIQGTWCKDILQTIMSFTPHNWASHTLSCFPGPLQAFFKQNNVPQESRFNLKKNVEEEYRKWKSMSNENDIITHFSMQGSPPLFLCLLWKMLLETDHINQIGYRVLERIGARALVAHVRTFADFLVYEFSTSAGGQQLNKCIEILNDMVWKYNIVTLDRLILCLAMRSHEGNEAQVCYFIIQLLLLKPNDFRNRVSDFVKENSPEHWLQNDWHTKHMNYHKKYPEKLYFEGLAEQVDPPVQIQSPYLPIYFGNVCLRFLPVFDIVIHRFLELLPVSKSLETLLDHLGGLYKFHDRPVTYLYNTLHYYEMHLRDRAFLKRKLVHAIIGSLKDNRPQGWCLSDTYLKCAMNAREENPWVPDDTYYCRLIGRLVDTMAGKSPGPFPNCDWRFNEFPNPAAHALHVTCVELMALAVSGKEVGNALLNVVLKSQPLVPRENITAWMNAIGLIITALPEPYWIVLHDRIVSVISSPSLTSETEWVGYPFRLFDFTACHQSYSEMSCSYTLALAHAVWHHSSIGQLSLIPKFLTEVLLPIVKTEFQLLYVYHLVGPFLQRFQQERTRCMIEIGVAFYDMLLNVDQCSTHLNYMDPICDFLYHMKYMFTGDSVKEQVEKIICNLKPALKLRLRFITHISKMEPAAVPPQAMNSGSPAPQSNQVPVSLPVTQ
As to B4, the binding result in assay [3] and in assay [4] was “binds” throughout.

B5: lamina-associated polypeptide (LAP)2A (protein, UniProt P42166 1-694)
chain: MPEFLEDPSVLTKDKLKSELVANNVTLPAGEQRKDVYVQLYLQHLTARNRPPLPAGTNSKGPPDFSSDEEREPTPVLGSGAAAAGRSRAAVGRKATKKTDKPRQEDKDDLDVTELTNEDLLDQLVKYGVNPGPIVGTTRKLYEKKLLKLREQGTESRSSTPLPTISSSAENTRQNGSNDSDRYSDNEEGKKKEHKKVKSTRDIVPFSELGTTPSGGGFFQGISFPEISTRPPLGSTELQAAKKVHTSKGDLPREPLVATNLPGRGQLQKLASERNLFISCKSSHDRCLEKSSSSSSQPEHSAMLVSTAASPSLIKETTTGYYKDIVENICGREKSGIQPLCPERSHISDQSPLSSKRKALEESESSQLISPPLAQAIRDYVNSLLVQGGVGSLPGTSNSMPPLDVENIQKRIDQSKFQETEFLSPPRKVPRLSEKSVEERDSGSFVAFQNIPGSELMSSFAKTVVSHSLTTLGLEVAKQSQHDKIDASELSFPFHESILKVIEEEWQQVDRQLPSLACKYPVSSREATQILSVPKVDDEILGFISEATPLGGIQAASTESCNQQLDLALCRAYEAAASALQIATHTAFVAKAMQADISQAAQILSSDPSRTHQALGILSKTYDAASYICEAAFDEVKMAAHTMGNATVGRRYLWLKDCKINLASKNKLASTPFKGGTLFGGEVCKVIKKRGNKH
Take B5: the binding entry with Prelamin-A/C (human) [1] and in the assay with Prelamin-A/C (human) [2] was “binds” each time.

B6: inner nuclear membrane protein Man1 (protein, UniProt Q9Y2U8 1-911)
chain: MAAAAASAPQQLSDEELFSQLRRYGLSPGPVTESTRPVYLKKLKKLREEEQQQHRSGGRGNKTRNSNNNNTAAATVAAAGPAAAAAAGMGVRPVSGDLSYLRTPGGLCRISASGPESLLGGPGGASAAPAAGSKVLLGFSSDESDVEASPRDQAGGGGRKDRASLQYRGLKAPPAPLAASEVTNSNSAERRKPHSWWGARRPAGPELQTPPGKDGAVEDEEGEGEDGEERDPETEEPLWASRTVNGSRLVPYSCRENYSDSEEEDDDDVASSRQVLKDDSLSRHRPRRTHSKPLPPLTAKSAGGRLETSVQGGGGLAMNDRAAAAGSLDRSRNLEEAAAAEQGGGCDQVDSSPVPRYRVNAKKLTPLLPPPLTDMDSTLDSSTGSLLKTNNHIGGGAFSVDSPRIYSNSLPPSAAVAASSSLRINHANHTGSNHTYLKNTYNKPKLSEPEEELLQQFKREEVSPTGSFSAHYLSMFLLTAACLFFLILGLTYLGMRGTGVSEDGELSIENPFGETFGKIQESEKTLMMNTLYKLHDRLAQLAGDHECGSSSQRTLSVQEAAAYLKDLGPEYEGIFNTSLQWILENGKDVGIRCVGFGPEEELTNITDVQFLQSTRPLMSFWCRFRRAFVTVTHRLLLLCLGVVMVCVVLRYMKYRWTKEEEETRQMYDMVVKIIDVLRSHNEACQENKDLQPYMPIPHVRDSLIQPHDRKKMKKVWDRAVDFLAANESRVRTETRRIGGADFLVWRWIQPSASCDKILVIPSKVWQGQAFHLDRRNSPPNSLTPCLKIRNMFDPVMEIGDQWHLAIQEAILEKCSDNDGIVHIAVDKNSREGCVYVKCLSPEYAGKAFKALHGSWFDGKLVTVKYLRLDRYHHRFPQALTSNTPLKPSNKHMNSMSHLRLRTGLTNSQGSS
Consider B6, for which the binding result in the assay with Prelamin-A/C (human) [1] and with Prelamin-A/C (human) [2] was “binds” throughout.
